# Values from PubChem BioAssay AID652272 (Drosophila RNAi Screening Center, 2013)
# Test: 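Genes whose knock-down decreases or increases Hedgehog reporter output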 (primary screen)
# System: Drosophila clone 8 (Cl8) cells
# Reagents: long dsRNA against Drosophila genes
# Measurement: 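Firefly light from a Hedgehog-responsive ptc promoter reporter and Renilla reference light, both read on a plate reader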
# Direction: firefly Hh reporter signal: higher = more ptc reporter light; Renilla reference signal: higher = more Renilla control light
# Call rule: 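Hit when the z-score averaged over two replicates is under -2 or over +3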
# Calls: active = hit: reporter lowered or raised; inactive = not a hit
# The screen tested about 21,000 reagents; this is a random part of those with a known target gene and a result. Over the whole deposit, 503 (2.4%) were called active. 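Raw plate light values, not normalised; calls rest on replicate z-scores that were not deposited; hits include reporter decreases as well as increases.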 Entries without a mark were called inactive. Not given: the amount of reagent, the time to read-out.
"firefly Hh reporter signal, replicate 1","firefly Hh reporter signal, replicate 2","firefly Hh reporter signal, replicate 3","Renilla reference signal, replicate 1","Renilla reference signal, replicate 2",Gene,amplicon
60358,70643,74860,6836,5616,Ilp3,DRSC10168
1.09e5,52224,,4210,4835,Drsl5,DRSC08159
91015,90971,,3517,3312,Pak3,DRSC15017
92096,90122,,3364,2919,Polr2H,DRSC11642
50560,2.78e5,,12470,6683,ATP8B,DRSC12883
70615,1.32e5,,1889,3164,ATP8B,DRSC14961
1.13e5,35835,,3733,1376,sei,DRSC04713
1.01e5,45712,,2823,4521,CG43795,DRSC04192
1.14e5,67996,,3117,5792,CG43795,DRSC04193
1.41e5,1.07e5,,4139,8097,CG43795,DRSC04194
1.00e5,74601,,2778,6464,CG43795,DRSC04309
77593,56508,,2036,4428,CG43795,DRSC04310
64172,33088,,1863,3922,CG43795,DRSC04497
79936,1.96e5,,2115,8197,goe,DRSC19345
86397,3.18e5,,2027,15764,dod,DRSC20577
1.03e5,1.51e5,,2784,7338,CG34217,DRSC05083
1.55e5,,,3163,,cno,DRSC12054
52374,42864,,2384,1691,cno,DRSC12374
52608,77217,,1024,2189,Sur-8,DRSC15794
95701,1.18e5,,3610,4464,Kdm2,DRSC14286
37308,48240,64568,4842,4256,Dnai2,DRSC10575
1.32e5,49420,,3436,5540,CG13086,DRSC02190
76202,2.32e5,,2404,9837,Adar,DRSC17725

Sorted by “firefly Hh reporter signal, replicate 2” (low to high): 2 of the entries above.
"firefly Hh reporter signal, replicate 1","firefly Hh reporter signal, replicate 2","firefly Hh reporter signal, replicate 3","Renilla reference signal, replicate 1","Renilla reference signal, replicate 2",Gene,amplicon
52608,77217,,1024,2189,Sur-8,DRSC15794
95701,1.18e5,,3610,4464,Kdm2,DRSC14286
